# Experimental data published in the supplement of paper PMC10403144.
# The list shows a part of the results.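 How the source made its calls: active = mitochondrial OCR inhibition above 30% at 1 uM; inactive = 30% or less.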 Single values are uncertain, as repeats are few or missing.
# Tested on: Toxoplasma gondii RH tachyzoites
# Experiment: inhibition of mitochondrial O2 consumption rate (% inhibition (relative to pre-injection OCR and atovaquone/antimycin A control)); higher = stronger ETC inhibition
# Settings: 1 µM; injection port (sequential injection order): C
row,SMILES,inhibition of mitochondrial O2 consumption rate
1,COc1ccc(S(=O)(=O)Nc2ccc(CN3CCN(C(=O)c4cccc(C#N)c4)CC3)cc2)cc1,inactive: -13.9
2,Cc1cccc(-c2nc(Nc3ccncn3)c3sccc3n2)n1,inactive: -5.03
3,CCc1ccc(S(=O)(=O)Nc2cc(CN3CCN(CCC(C)C)CC3)ccc2C)cc1,inactive: -7.98
4,CC(C)C(Oc1cccc2ccccc12)C(=O)O (centres undefined),inactive: -33.9
